Reference: PubChem BioAssay AID743454 (Peter MacCallum Cancer Centre, 2014)
Shown is one part, drawn at random, of about 18,000 deposited reagents. 450 of them (2.5%) were called active. 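Single biological run; no consistent viability z cut-off exists, so the class columns, not z-scores, define the calls.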 Entries without a mark were called inactive. Reagent sequences are not shown.

Assay: 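Search for knock-downs that restore vorinostat killing in resistant colon cancer cells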 (primary screen)
Cell system: human HCT116-VR colon cancer cells, selected for vorinostat resistance
Reagents: siRNA pool against human genes, 40 nM siRNA pool
Time to read-out: vorinostat for 24 h, read-out about 72 h after transfection
Challenge: vorinostat at 2.5 µM final
Read-out: 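Cell viability by CellTiter-Fluor and caspase 3/7 activity by luminescence, each scaled to mock wells per plate, duplicates averaged, then robust z-scored over all plates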
Direction: viability robust z-score: higher = more viable cells than screen typical; caspase robust z-score: higher = more caspase 3/7 activity than screen typical
Rule for the call: 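a knock-down is a hit when classed RV1 or RV2 for lowered viability, or CA1 or CA2 for caspase activation; those lethal without drug were dropped; hits were retested singly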

How did the screen score RNF222 (GeneID 643904)?
viability hit class: no change; caspase hit class: no change; viability robust z-score: 0.5; caspase robust z-score: 0.17

Which result is listed for KLHL21 (GeneID 9903)?
viability hit class: no change; caspase hit class: no change; viability robust z-score: -0.1; caspase robust z-score: -1.12

How did the screen score ACP3 (GeneID 55)?
viability hit class: no change; caspase hit class: no change; viability robust z-score: 0.72; caspase robust z-score: 0.87

What did the screen give for SETMAR (GeneID 6419)?
viability hit class: no change; caspase hit class: no change; viability robust z-score: 0.98; caspase robust z-score: -0.71

Which result is listed for NISCH (GeneID 11188)?
viability hit class: no change; caspase hit class: no change; viability robust z-score: 0.96; caspase robust z-score: 0.38

What did the screen give for HSPA2 (GeneID 3306)?
viability hit class: no change; caspase hit class: no change; viability robust z-score: -0.36; caspase robust z-score: 1.54

For FSD2 (GeneID 123722), what does the deposit list?
viability hit class: no change; caspase hit class: no change; viability robust z-score: -0.02; caspase robust z-score: -0.4

How did the screen score TRPV1 (GeneID 7442)?
viability hit class: no change; caspase hit class: no change; viability robust z-score: 0.64; caspase robust z-score: 0.11

With ZNF175 (GeneID 7728), what was measured?
viability hit class: no change; caspase hit class: no change; viability robust z-score: 1.26; caspase robust z-score: 1.38

With TMEM69 (GeneID 51249), what does the deposit list?
viability hit class: no change; caspase hit class: no change; viability robust z-score: -0.17; caspase robust z-score: 0.65

What is on record for ENTPD2 (GeneID 954)?
viability hit class: no change; caspase hit class: no change; viability robust z-score: -0.42; caspase robust z-score: 0.41

For ACTA1 (GeneID 58), what was measured?
viability hit class: no change; caspase hit class: no change; viability robust z-score: 0.58; caspase robust z-score: 0.3

How did the screen score WDR83 (GeneID 84292)?
viability hit class: no change; caspase hit class: no change; viability robust z-score: -2.16; caspase robust z-score: 1.25

With ARL2BP (GeneID 23568), how do the results read?
viability hit class: no change; caspase hit class: no change; viability robust z-score: -0.03; caspase robust z-score: 0.33

With FIS1 (GeneID 51024), what does the deposit list?
viability hit class: no change; caspase hit class: no change; viability robust z-score: 0.22; caspase robust z-score: -0.9

What is on record for RNF180 (GeneID 285671)?
viability hit class: no change; caspase hit class: no change; viability robust z-score: -0.26; caspase robust z-score: -0.42

What is on record for OTOGL (GeneID 283310)?
viability hit class: no change; caspase hit class: no change; viability robust z-score: 0.26; caspase robust z-score: -0.59

What did the screen give for CRYBA2 (GeneID 1412)?
viability hit class: no change; caspase hit class: no change; viability robust z-score: 0.36; caspase robust z-score: -0.32

With CIMAP1A (GeneID 113746), what does the deposit list?
viability hit class: no change; caspase hit class: no change; viability robust z-score: 0.24; caspase robust z-score: -0.97

With DEFB115 (GeneID 245929), how do the results read?
viability hit class: no change; caspase hit class: no change; viability robust z-score: 0.05; caspase robust z-score: -0.8

For RPUSD1 (GeneID 113000), how do the results read?
viability hit class: no change; caspase hit class: no change; viability robust z-score: 0.36; caspase robust z-score: 0.27
